# From PubChem BioAssay AID504834 (National Center for Advancing Translational Sciences (NCATS), 2011)
# About 22,000 (6.9%) of roughly 320,000 compounds were called active. This list was built around the results that the source calls inconclusive (neither active nor inactive); the mix of calls is not that of the screen. Calls come from the whole dose curve; as a rule, active = well fitted inhibition curve with a large enough effect; inconclusive = small, poorly fitted or top-dose-only effect, or another doubt; inactive = no such curve, though single readings can be large or run the other way. Potencies beside an inconclusive call are fits to weak or partial responses and may not hold up.
# Test: Primary qHTS for delayed death inhibitors of the malarial parasite plastid, 96 hour incubation
# Settings: P. falciparum luciferase reporter growth; series mostly up to 28.7 µM; activity change, negative = inhibition: at the top concentration
# Outline: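 P. falciparum expressing integrated firefly luciferase, in erythrocytes at 2% hematocrit, 0.05% parasitemia, incubated with compounds 96 h at 37 C, 5% CO2. Growth inhibition read as loss of luminescence; two-generation exposure targets delayed-death apicoplast inhibitors.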
# % is set by controls: 0 for no effect and ±100 for the full control effect; potency is the fitted concentration of half-maximal effect.
Compound,"activity change, negative = inhibition",Potency
O=C1ON=C(c2cccc([N+](=O)[O-])c2)/C1=C/c1ccc(O)cc1,inactive: 1.02%,–
CCOc1ccccc1C(=O)OCC(=O)NCCNC(=O)COC(=O)c1ccccc1OCC,–,"inconclusive: 11.7 µM [inhibitor, single point]"
Cc1ccc(C)c(S(=O)(=O)N2CCN(C(=O)c3ccc(OCc4c(C)noc4C)cc3)CC2)c1,–,"inconclusive: 1.31 µM [inhibitor, full curve]"
CC(=O)Nc1ccc(NC(=O)C2CC(=O)N(Cc3ccccc3)C2)cc1 (stereo not given),–,"inconclusive: 13.1 µM [inhibitor, partial curve]"
CC(C)N(C(=O)Cn1cc(S(=O)(=O)CC(=O)N2CCOCC2)c2ccccc21)C(C)C,–,"inconclusive: 0.0928 µM [inhibitor, full curve, poor fit]"
Cn1nc(C(=O)NC2CCCC2)c2ccccc2c1=O,inactive: 2.69%,–
CCc1nnc(NC(=O)CN2C(=O)N(C)C3(CCCCC3)C2=O)s1,–,"inconclusive: 13.1 µM [inhibitor, single point]"
CCOCCCNC(=O)Cn1cnc2sc(C)c(S(=O)(=O)N3CCN(c4ncccn4)CC3)c2c1=O,inactive: -18.9%,–
CCCCOC(=O)c1ccc(O)cc1,–,inactive
Cc1ccc(CCNC(=O)C2CCCN(c3ncnc4c3nc3n4CCCCC3)C2)cc1 (stereo not given),inactive: -27.2%,–
O=C(/C(=C(\O)c1ccccc1)c1ncc[nH]1)c1ccccc1,–,"inconclusive: 6.57 µM [inhibitor, partial curve, poor fit]"
CC(=O)/C(=C\N(C)C)Sc1ccc(Cl)cc1,–,"inconclusive: 3.7 µM [inhibitor, partial curve, poor fit]"
O=C(Nc1ccc2c(c1)OCO2)N1CCCC1,inactive: 24.2%,–
NC(=S)c1cnn2c(-c3cccc(C(F)(F)F)c3)ccnc12,–,"inconclusive: 9.28 µM [inhibitor, partial curve, poor fit]"
COc1ccccc1-n1ccnc1SCC(=O)NCC1CCCO1 (stereo not given),–,"inconclusive: 18.5 µM [inhibitor, single point]"
COc1ccc(NC(=O)CCC(=O)N/N=C/c2cccnc2)cc1,–,"inconclusive: 18.5 µM [inhibitor, single point]"
Cc1cc(NC(=O)COc2ccc(N(C)S(=O)(=O)c3ccccc3)cc2)no1,–,"inconclusive: 18.5 µM [inhibitor, single point]"
COC(=O)C1=C(O)CSC1=Nc1ccc(C)cc1,–,"inconclusive: 20.8 µM [inhibitor, partial curve, poor fit]"
CNCCCCOc1ccccc1Cc1ccccc1,–,active: 16.9 µM
N#C/C(=N/Nc1ccc([N+](=O)[O-])cc1)C(=N)N1CCCCC1,–,"inconclusive: 4.65 µM [inhibitor, partial curve, poor fit]"

# Some of the entries so far, with bars between the fields.
Compound | activity change, negative = inhibition | Potency
CC(=O)Nc1ccc(NC(=O)C2CC(=O)N(Cc3ccccc3)C2)cc1 (stereo not given) | – | inconclusive: 13.1 µM [inhibitor, partial curve]
Cc1cc(NC(=O)COc2ccc(N(C)S(=O)(=O)c3ccccc3)cc2)no1 | – | inconclusive: 18.5 µM [inhibitor, single point]
